For the test, the target named is T1, UCHL3, P15374.
T1 chain: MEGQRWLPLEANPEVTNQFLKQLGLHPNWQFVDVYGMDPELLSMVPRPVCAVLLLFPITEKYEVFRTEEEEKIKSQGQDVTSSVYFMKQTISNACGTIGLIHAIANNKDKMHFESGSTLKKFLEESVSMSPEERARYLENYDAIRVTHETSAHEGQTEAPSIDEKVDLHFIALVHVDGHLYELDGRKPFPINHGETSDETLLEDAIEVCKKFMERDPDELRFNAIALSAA
Description: co-IP; HEK293 cells treated with farrerol; lysis in RIPA buffer, antibodies and Protein A/G-agarose beads at 4 °C, five washes with RIPA buffer, western blot. Particulars: remark: other sources report otherwise.

No constants are given. Whether binding was seen depends on the method and setting. Binding seen in cells or lysates may run through a third protein. Some results given as binding are weak or reduced against the parent protein; the word gives no strength.

B1: RAD51, Q06609 1-339 (protein)
chain: MAMQMQLEANADTSVEEESFGPQPISRLEQCGINANDVKKLEEAGFHTVEAVAYAPKKELINIKGISEAKADKILAEAAKLVPMGFTTATEFHQRRSEIIQITTGSKELDKLLQGGIETGSITEMFGEFRTGKTQICHTLAVTCQLPIDRGGGEGKAMYIDTEGTFRPERLLAVAERYGLSGSDVLDNVAYARAFNTDHQTQLLYQASAMMVESRYALLIVDSATALYRTDYSGRGELSARQMHLARFLRMLLRLADEFGVAVVITNQVVAQVDGAAMFAADPKKPIGGNIIAHASTTRLYLRKGRGETRICKIYDSPCLPEAEAMFAINADGVGDAKD
As for B1, the binding entry was “binds”.
